These results are taken from the supplement of paper PMC7125110.

± gives the standard error. Many of these values have a large error.

The chains are these.
B1: glmS ribozyme (parent)
chain: AUAAAAGCGCCAGAACUACAGAAAUGUAGUUGACGAGGAGGAGGUUUAUCGAAUUUUCGGCGGAUGCCUCCAAA

The variants in one series derive from B1. The series is described as follows: self-cleavage kobs at 640 uM GlcN6P; higher = faster cleavage; RNA array. The note with it: with glucosamine-6-phosphate. In outline: (§1)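 On sequenced MiSeq chips, barcoded ribozyme variants were made in situ by E. coli RNA polymerase and followed at 37 °C through a hybridised Cy3 probe. Glucosamine-6-phosphate was flowed in at 40 μM to 10 mM in HEPES/KCl/Mg(OAc)2 buffer. Exponential fits to normalised per-tile medians gave kobs, and weighted Michaelis–Menten fits gave kcat and KM.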
For the variant AUAAAAGCGCCAGAACUACAGAAAUGUAGUUGACGAGGAGGAGGUUUAUCGAAUUUUCAGCGGAUGCGUCCAAA, the “self-cleavage kobs at 640 uM GlcN6P” value is 1.71e-05 ± 1.6e-05 s⁻¹.
For the variant AUAAAAGCGCCAGAACUACAGAAAUGUAGUUGACGAGGAGGAGGUUUAUCGAAUUCGCGGCGGAUGCCUCCAAA, the “self-cleavage kobs at 640 uM GlcN6P” value turned out to be 2.5e-05 ± 2.2e-05 s⁻¹.
The same measure, in the same setting: with AUAAAAGCGCCAGAACUACAGAAAUGUAGUUGACGAGGAGGAGGUUUAUCGGAUUUUCGGCGGAUACUUCGAAA the figure was 4.02e-05 ± 2.2e-05 s⁻¹; with AUAAAAGCGCCAGAACUACAGAAAUGUAGUUGACGAGGAGGAGGUUUAUCGAAUUUUCUGCGGAUGUUCCCAAA, 4.48e-05 ± 2.3e-05 s⁻¹.
The same measure, in the same setting: the result for AUAAAAGCGCCAGAACUACAGAAAUGUAGUUGACGAGGAGGAGCUUAAUCGAAUUUUCGGCGGAUGCCUCCAAA reads 3.32e-05 ± 1.9e-05 s⁻¹; that for AUAAAAGCGCCAGAACUACAGAAAUGUAGUUGACGAGGAGGAGGUUUAUCGAAUGUUUGGCGGAUGCCUUCAAA, 3.43e-05 ± 2.2e-05 s⁻¹; that for AUAAAAGCGCCAGAACUACAGAAAUGUAGUUGACGAGGAGGAGGUUUAUCGAACUUUGGGGGGAUGCGGCGAAA, 3.94e-05 ± 2.4e-05 s⁻¹.
Regarding AUAAAAGCGCCAGAACUACAGAAAUGUAGUUGACGAGGAGGAGGUUUAUCGAAUCUUCAGCGGAUGCCUCCAAA, the “self-cleavage kobs at 640 uM GlcN6P” value was found to be 2.25e-05 ± 1.7e-05 s⁻¹.
AUAAAAGCGCCAGAACUACAGAAAUGUAGUUGACGAGGAGGAGGUGUAUCGAAUUUUCGGGGGAUGACUCCAAA: the “self-cleavage kobs at 640 uM GlcN6P” value stood at 5.57e-05 ± 3.1e-05 s⁻¹.
For the variant AUAAAAGCGCCAGAACUACAGAAAUGUAGUUGACGAGGAGGAGGUUUAUCGAAAUUUCGGAGCAUGGCUCCAAA, the “self-cleavage kobs at 640 uM GlcN6P” value stood at 4.83e-05 ± 2.6e-05 s⁻¹.
Same read-out and setting: the result for AUAAAAGCGCCAGAACUACAGAAAUGUAGUUGACGAGGAGGAGGUUUAUCGGAUUUUCGGCGGAUGCGCCCAAA reads 6.26e-05 ± 3.3e-05 s⁻¹; that for AUAAAAGCGCCAGAACUACAGAAAUGUAGUUGACGAGGAGGAGGUUUAUCGAAUUUUGGGCGGAUGCCUCAAAA, 0.00112 ± 0.00067 s⁻¹.
Take AUAAAAGCGCCAGAACUACAGAAAUGUAGUUGACGACGAGGAGGUUGAUCGAAUUUUCGCCGGAGGCCUCCAAA: the “self-cleavage kobs at 640 uM GlcN6P” value turned out to be 5.14e-05 ± 2.7e-05 s⁻¹.
On the same count and under the same terms, with AUAAAAGCGCCAGAACUACAGAAAUGUAGUUGACGAGGAGGAGGUUUAUCGAAUUUCCGGCGGAUACCUCCAAA the figure was 1.86e-05 ± 1.6e-05 s⁻¹; with AUAAAAGCGCCAGAACUACAGAAAUGUAGUUGACGAGGAGGAGGUUUAUCGUAUCUUCGGCGGGUGCCUCCAAA, 3.14e-05 ± 1.7e-05 s⁻¹; with AUAAAAGCGCCAGAACUACAGAAAUGUAGUUGACGAGGAGGUGGUUUAUCGAAUUUUCGGCGGAUGCCUCGAAA, 2.13e-05 ± 2.1e-05 s⁻¹.
The same measure, in the same setting: the result for AUAAAAGCGCCAGAACUACAGAAAUGUAGUUGACGAGGAGGAGGUUUAUCAAAUUUUCGGCGGAUGCCUGCAAA reads 3.54e-05 ± 2e-05 s⁻¹; that for AUAAAAGCGCCAGAACUACAGAAAUGUAGUUGACGAGGAGGAGGUUUAUCAAAUUUUCGGCGGAUGCGUCCAAA, 0.000252 ± 0.00019 s⁻¹; that for AUAAAAGCGCCAGAACUACAGAAAUGUAGUUGACGAGGAGGAGGUUUAUCGAAUUUUCGGAGGAUGCCUGCAAA, 1.69e-05 ± 1.5e-05 s⁻¹.
The same measure, in the same setting: with AUAAAAGCGCCAGAACUACAGAAAUGUAGUUGACGAGGAGGAGGUUUUUCGAAUUUUCGGCGGAUGCCGCCAAA the figure was 4.36e-05 ± 2.3e-05 s⁻¹; with AUAAAAGCGCCAGAACUACAGAAAUGUAGUUGACGAUGAGGAGGUUUAUCGAAUUUUCGGCGGAUGCGUCCAAA, 2.64e-05 ± 1.5e-05 s⁻¹; with AUAAAAGCGCCAGAACUACAGAAAUGUAGUUGACGAGGAGGAGGUUUAUCGCACUUUCGGCGGAUGCCUCCAAA, 2.04e-05 ± 1.9e-05 s⁻¹.
Take AUAAAAGCGCCAGAACUACAGAAAUGUAGUUGACGAGGAGGAGGUUUAUGGAAUCUUCGGCGGAUGCCUCCAAA: the “self-cleavage kobs at 640 uM GlcN6P” value came out at 2.14e-05 ± 1.8e-05 s⁻¹.

In another series the parent is B1. As to the kind of experiment: self-cleavage kobs at 160 uM GlcN6P; higher = faster cleavage; RNA array. Particulars: with glucosamine-6-phosphate. A digest of the protocol: as §1
AUAAAAGCGCCAGAACUACAGAAAUGUAGUUGACGAGGAGGAGGUUUAUCGAAUUUUCAGCGGAUGCGUCCAAA: the “self-cleavage kobs at 160 uM GlcN6P” value is 1.62e-05 ± 1.5e-05 s⁻¹.
Still for that read-out and setting: with AUAAAAGCGCCAGAACUACAGAAAUGUAGUUGACGAGGAGGAGGUUUAUCAAAUUUUCGGCGGAUGCCUGCAAA the figure was 3.47e-05 ± 2e-05 s⁻¹.
The same measure, in the same setting: the result for AUAAAAGCGCCAGAACUACAGAAAUGUAGUUGACGAGGAGGAGGUUUAUCAAAUUUUCGGCGGAUGCGUCCAAA reads 2.81e-05 ± 1.5e-05 s⁻¹.
Same read-out and setting: with AUAAAAGCGCCAGAACUACAGAAAUGUAGUUGACGAGGAGGAGGUUUUUCGAAUUUUCGGCGGAUGCCGCCAAA the figure was 2.31e-05 ± 2.1e-05 s⁻¹; with AUAAAAGCGCCAGAACUACAGAAAUGUAGUUGACGAUGAGGAGGUUUAUCGAAUUUUCGGCGGAUGCGUCCAAA, 1.72e-05 ± 1.2e-05 s⁻¹.
With AUAAAAGCGCCAGAACUACAGAAAUGUAGUUGACGAGGAGGAGGUUUAUGGAAUCUUCGGCGGAUGCCUCCAAA, the “self-cleavage kobs at 160 uM GlcN6P” value stood at 2.91e-05 ± 2.5e-05 s⁻¹.

In a further series the parent is B1. As to the kind of experiment: self-cleavage kobs at 2500 uM GlcN6P; higher = faster cleavage; RNA array. The note with it: with glucosamine-6-phosphate. In outline: as §1
With AUAAAAGCGCCAGAACUACAGAAAUGUAGUUGACGAGGAGGAGGUUUAUCGAAUUUUCAGCGGAUGCGUCCAAA, the “self-cleavage kobs at 2500 uM GlcN6P” value stood at 1.72e-05 ± 1.4e-05 s⁻¹.
Still for that read-out and setting: with AUAAAAGCGCCAGAACUACAGAAAUGUAGUUGACGAGGAGGAGGUUUAUCGAAAUUUCGGAGCAUGGCUCCAAA the figure was 6.71e-05 ± 4.1e-05 s⁻¹; with AUAAAAGCGCCAGAACUACAGAAAUGUAGUUGACGAGGAGGAGGUUUAUCGGAUUUUCGGCGGAUGCGCCCAAA, 0.000126 ± 6.7e-05 s⁻¹.
The same measure, in the same setting: with AUAAAAGCGCCAGAACUACAGAAAUGUAGUUGACGAGGAGGAGGUUUAUCAAAUUUUCGGCGGAUGCCUGCAAA the figure was 3.64e-05 ± 2.3e-05 s⁻¹; with AUAAAAGCGCCAGAACUACAGAAAUGUAGUUGACGAGGAGGAGGUUUAUCAAAUUUUCGGCGGAUGCGUCCAAA, 3.6e-05 ± 1.8e-05 s⁻¹.
Same read-out and setting: with AUAAAAGCGCCAGAACUACAGAAAUGUAGUUGACGAGGAGGAGGUUUAUCGAAUUUUCGGAGGAUGCCUGCAAA the figure was 1.88e-05 ± 1.7e-05 s⁻¹; with AUAAAAGCGCCAGAACUACAGAAAUGUAGUUGACGAUGAGGAGGUUUAUCGAAUUUUCGGCGGAUGCGUCCAAA, 2.08e-05 ± 1.5e-05 s⁻¹; with AUAAAAGCGCCAGAACUACAGAAAUGUAGUUGACGAGGAGGAGGUUUAUCGCACUUUCGGCGGAUGCCUCCAAA, 2.88e-05 ± 2e-05 s⁻¹.

In the next series the parent is B1. As to the kind of experiment: self-cleavage kobs at 10000 uM GlcN6P; higher = faster cleavage; RNA array. The note with it: with glucosamine-6-phosphate. In outline: as §1
AUAAAAGCGCCAGAACUACAGAAAUGUAGUUGACGAGGAGGAGGUUUAUGGAAUCUUCGGCGGAUGCCUCCAAA: the “self-cleavage kobs at 10000 uM GlcN6P” value came to 1.96e-05 ± 1.5e-05 s⁻¹.
